Laboratory results published in the supplement of paper PMC10849652.
The list shows a part of the results. Residues, ends and D or L forms follow the SMILES beside them. *: point of attachment. Cbz = O=C(OCc1ccccc1)*

Sequences of proteins named here, by UniProt entry; tags and fusion partners are left off. A change or cut given only in a name is not applied to a line headed by its entry.
UniProt O43143: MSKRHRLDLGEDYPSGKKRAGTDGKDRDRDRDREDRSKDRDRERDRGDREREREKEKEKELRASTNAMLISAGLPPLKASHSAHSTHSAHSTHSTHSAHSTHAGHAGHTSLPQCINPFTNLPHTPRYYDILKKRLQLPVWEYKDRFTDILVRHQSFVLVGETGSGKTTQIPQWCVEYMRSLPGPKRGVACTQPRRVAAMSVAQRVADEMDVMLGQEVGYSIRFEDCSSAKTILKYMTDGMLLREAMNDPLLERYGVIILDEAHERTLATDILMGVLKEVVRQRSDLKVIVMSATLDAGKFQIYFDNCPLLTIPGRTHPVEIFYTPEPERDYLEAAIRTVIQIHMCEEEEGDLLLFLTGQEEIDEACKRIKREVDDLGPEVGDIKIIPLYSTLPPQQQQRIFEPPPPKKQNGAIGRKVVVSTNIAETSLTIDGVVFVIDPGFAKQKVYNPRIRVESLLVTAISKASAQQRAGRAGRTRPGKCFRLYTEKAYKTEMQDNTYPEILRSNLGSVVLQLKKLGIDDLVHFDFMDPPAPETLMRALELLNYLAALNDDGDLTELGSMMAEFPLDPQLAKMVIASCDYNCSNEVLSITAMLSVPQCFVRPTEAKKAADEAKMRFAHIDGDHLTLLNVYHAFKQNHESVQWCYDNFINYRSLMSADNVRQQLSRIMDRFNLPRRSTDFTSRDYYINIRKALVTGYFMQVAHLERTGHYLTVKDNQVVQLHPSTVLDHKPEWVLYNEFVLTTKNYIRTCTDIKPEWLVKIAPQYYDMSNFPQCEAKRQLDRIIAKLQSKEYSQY
UniProt Q9BUN8: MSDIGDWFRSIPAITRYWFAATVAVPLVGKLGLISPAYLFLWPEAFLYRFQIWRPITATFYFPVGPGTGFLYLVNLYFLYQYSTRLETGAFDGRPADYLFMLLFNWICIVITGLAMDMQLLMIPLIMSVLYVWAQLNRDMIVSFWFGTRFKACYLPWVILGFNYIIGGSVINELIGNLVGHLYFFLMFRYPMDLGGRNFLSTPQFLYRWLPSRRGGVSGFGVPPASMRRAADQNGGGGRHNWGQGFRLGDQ
UniProt P98153: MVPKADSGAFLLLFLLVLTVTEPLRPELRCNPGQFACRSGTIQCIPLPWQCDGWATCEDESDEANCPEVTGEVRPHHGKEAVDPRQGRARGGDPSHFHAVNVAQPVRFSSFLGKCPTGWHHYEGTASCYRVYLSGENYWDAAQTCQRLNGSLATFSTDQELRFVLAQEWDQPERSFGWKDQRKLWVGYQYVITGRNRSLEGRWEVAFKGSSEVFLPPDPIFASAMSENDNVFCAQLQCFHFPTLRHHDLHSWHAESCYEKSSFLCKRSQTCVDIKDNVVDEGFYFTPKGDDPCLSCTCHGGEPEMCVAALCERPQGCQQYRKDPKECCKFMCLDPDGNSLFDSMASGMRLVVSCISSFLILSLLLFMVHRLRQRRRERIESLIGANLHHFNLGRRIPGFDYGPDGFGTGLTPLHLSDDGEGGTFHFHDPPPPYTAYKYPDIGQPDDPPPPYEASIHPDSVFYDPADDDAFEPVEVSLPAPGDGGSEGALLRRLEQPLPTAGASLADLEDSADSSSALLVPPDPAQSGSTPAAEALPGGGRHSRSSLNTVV
UniProt Q8IWF6: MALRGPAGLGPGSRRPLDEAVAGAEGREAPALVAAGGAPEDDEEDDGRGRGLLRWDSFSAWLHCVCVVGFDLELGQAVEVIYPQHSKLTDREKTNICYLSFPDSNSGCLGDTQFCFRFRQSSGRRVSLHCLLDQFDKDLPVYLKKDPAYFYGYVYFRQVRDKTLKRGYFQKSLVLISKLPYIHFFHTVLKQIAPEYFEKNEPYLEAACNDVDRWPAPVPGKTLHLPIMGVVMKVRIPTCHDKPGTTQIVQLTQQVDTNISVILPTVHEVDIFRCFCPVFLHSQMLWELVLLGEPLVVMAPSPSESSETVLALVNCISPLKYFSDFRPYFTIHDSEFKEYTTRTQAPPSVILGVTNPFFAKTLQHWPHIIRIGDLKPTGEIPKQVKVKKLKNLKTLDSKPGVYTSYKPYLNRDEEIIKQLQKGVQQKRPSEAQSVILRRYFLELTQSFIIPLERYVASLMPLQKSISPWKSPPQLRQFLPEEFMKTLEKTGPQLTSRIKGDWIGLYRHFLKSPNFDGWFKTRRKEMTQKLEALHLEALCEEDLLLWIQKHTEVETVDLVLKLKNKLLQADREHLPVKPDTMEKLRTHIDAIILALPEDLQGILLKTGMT
UniProt O95865: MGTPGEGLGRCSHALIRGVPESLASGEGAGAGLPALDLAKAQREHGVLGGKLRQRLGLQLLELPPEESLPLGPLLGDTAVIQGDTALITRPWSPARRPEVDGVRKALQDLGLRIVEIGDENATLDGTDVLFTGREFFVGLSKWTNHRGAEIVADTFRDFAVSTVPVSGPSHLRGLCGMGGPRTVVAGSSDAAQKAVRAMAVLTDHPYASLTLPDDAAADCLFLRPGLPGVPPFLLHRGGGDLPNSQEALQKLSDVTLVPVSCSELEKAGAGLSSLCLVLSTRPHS
UniProt Q15398: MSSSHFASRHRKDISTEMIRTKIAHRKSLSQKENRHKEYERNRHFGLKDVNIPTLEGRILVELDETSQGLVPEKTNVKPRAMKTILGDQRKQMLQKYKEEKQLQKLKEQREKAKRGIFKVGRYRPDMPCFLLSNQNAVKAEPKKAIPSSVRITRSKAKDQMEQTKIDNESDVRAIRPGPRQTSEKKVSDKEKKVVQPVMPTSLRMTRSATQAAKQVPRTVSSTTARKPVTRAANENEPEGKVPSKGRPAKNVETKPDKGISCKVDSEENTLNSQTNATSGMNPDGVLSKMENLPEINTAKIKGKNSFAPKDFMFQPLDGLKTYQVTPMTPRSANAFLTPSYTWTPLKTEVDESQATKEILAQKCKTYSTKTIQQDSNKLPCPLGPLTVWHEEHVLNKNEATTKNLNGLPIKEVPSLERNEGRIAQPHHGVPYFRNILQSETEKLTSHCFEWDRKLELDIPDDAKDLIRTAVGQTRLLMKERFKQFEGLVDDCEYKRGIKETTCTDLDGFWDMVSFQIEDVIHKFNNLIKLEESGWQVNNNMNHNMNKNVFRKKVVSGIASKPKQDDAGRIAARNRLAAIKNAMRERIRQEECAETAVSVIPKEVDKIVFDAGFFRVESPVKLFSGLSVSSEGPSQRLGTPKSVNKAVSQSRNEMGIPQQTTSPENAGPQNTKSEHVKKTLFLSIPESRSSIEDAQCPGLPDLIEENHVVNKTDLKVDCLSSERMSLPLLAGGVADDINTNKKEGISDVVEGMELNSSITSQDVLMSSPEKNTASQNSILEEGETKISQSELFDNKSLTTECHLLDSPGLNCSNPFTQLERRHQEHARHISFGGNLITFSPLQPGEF
UniProt P17661, whole entry, looked up: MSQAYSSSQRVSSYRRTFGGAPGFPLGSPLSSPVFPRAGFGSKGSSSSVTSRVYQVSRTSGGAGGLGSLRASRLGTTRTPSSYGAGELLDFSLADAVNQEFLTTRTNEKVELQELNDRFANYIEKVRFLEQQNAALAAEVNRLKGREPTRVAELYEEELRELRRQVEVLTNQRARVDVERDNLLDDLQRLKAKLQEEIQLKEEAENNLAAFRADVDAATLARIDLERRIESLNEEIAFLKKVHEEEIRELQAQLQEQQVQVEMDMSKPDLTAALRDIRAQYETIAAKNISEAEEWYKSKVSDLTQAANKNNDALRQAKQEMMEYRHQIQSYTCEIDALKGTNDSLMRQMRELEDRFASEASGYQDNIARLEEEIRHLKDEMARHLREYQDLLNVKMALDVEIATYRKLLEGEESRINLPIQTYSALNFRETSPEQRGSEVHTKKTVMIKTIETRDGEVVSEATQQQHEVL
UniProt Q13268: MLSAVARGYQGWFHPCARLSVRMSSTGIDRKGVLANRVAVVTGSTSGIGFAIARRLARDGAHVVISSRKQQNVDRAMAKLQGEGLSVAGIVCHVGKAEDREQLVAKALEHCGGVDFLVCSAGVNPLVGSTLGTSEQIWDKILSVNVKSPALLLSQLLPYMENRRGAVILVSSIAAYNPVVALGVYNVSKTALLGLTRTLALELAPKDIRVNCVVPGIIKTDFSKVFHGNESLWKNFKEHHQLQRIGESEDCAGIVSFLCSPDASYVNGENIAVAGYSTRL
UniProt Q9UHI6: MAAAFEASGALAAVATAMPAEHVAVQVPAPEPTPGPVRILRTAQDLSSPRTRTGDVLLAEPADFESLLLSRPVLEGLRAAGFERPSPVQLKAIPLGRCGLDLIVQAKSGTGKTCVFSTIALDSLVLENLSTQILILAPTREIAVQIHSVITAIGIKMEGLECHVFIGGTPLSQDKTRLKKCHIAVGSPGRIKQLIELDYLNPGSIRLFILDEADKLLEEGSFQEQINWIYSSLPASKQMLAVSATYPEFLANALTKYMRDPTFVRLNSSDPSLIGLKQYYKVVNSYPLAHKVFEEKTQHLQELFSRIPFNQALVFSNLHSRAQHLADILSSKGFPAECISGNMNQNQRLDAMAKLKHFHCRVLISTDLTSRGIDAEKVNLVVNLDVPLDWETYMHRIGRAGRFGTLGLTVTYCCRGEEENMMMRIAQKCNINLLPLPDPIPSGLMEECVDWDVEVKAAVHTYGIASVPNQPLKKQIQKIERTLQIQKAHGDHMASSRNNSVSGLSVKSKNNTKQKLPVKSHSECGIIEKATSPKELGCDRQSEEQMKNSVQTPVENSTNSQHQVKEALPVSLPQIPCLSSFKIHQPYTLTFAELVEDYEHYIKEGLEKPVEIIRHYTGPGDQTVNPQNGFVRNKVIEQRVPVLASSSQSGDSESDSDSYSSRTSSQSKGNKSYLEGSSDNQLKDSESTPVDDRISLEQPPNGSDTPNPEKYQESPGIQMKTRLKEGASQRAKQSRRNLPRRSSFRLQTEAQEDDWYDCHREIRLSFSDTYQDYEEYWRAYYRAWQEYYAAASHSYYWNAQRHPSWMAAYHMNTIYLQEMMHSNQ
UniProt O75064: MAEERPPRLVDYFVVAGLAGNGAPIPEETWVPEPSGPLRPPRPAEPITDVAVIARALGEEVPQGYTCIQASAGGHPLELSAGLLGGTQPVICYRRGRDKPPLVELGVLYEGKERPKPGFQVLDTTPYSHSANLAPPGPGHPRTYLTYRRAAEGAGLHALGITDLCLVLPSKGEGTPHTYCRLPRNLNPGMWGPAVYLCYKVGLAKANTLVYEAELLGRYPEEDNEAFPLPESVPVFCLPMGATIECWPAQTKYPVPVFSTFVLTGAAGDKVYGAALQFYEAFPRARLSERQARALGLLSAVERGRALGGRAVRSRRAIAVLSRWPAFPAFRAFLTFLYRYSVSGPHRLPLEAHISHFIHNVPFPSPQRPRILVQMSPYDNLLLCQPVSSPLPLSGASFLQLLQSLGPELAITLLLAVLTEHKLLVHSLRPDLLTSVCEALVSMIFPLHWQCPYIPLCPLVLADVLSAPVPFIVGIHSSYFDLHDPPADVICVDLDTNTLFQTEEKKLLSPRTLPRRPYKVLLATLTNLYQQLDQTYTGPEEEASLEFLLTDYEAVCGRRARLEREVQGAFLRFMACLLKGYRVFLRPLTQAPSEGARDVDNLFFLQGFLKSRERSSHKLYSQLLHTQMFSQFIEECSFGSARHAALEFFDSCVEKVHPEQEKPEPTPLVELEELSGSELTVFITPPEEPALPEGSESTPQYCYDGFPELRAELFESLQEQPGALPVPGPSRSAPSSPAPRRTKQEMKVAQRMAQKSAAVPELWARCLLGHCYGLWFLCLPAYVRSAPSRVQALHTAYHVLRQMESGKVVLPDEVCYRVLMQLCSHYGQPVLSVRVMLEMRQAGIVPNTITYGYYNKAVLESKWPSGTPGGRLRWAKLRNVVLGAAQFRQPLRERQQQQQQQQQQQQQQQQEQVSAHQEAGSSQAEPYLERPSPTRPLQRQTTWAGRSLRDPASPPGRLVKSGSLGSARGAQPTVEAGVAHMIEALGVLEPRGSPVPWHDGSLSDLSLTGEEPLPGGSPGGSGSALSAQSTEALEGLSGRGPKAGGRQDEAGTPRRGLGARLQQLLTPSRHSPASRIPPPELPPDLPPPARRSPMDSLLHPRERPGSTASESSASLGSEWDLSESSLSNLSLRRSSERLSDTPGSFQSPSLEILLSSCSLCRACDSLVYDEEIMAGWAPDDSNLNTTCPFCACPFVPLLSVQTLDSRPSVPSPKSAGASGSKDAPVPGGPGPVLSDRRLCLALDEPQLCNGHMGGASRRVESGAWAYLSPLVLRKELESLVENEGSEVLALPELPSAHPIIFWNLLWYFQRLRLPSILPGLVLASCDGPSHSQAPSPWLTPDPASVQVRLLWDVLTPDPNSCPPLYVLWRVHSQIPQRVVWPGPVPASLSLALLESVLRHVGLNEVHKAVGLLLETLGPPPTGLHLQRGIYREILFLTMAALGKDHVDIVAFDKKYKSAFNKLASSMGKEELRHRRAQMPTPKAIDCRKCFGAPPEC

Tests used:
Assay in all cases: log2 fold change, soluble protein after heating vs DMSO (PISA); higher = thermal stabilisation; K562 cells, 10 uM, 30 min; active = over 0.2 and 3.5 SD of the protein, either way, in both replicates (recomputed)
erlotinib = compound: C#Cc1cccc(Nc2ncnc3cc(OCCOC)c(OCCOC)cc23)c1 [erlotinib]
Procedure, shortened: (§1)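 K562 cells at 2×10^6 cells/mL were exposed to 10 μM compound for 30 min, then aliquots were heated for 3 min across 48°C-58°C, pooled, and extracted in PBS containing 0.5% NP-40 at 4°C. The supernatant after 21,000xg for 90 min was taken as soluble protein and measured by TMTpro 16plex LC-MS/MS with channel sums equalised. Thermal stability is reported relative to control samples, with values from duplicates. Fold changes are given on a log2 scale.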

[1] = compound: C/C(=N\NC(=O)C1=CC(=CC=C1)S(=O)(=O)N2CCOCC2)/C3=C(C=CC(=C3)Cl)O
Procedure, shortened: as §1

[2] = compound: C1=CC(=C(C=C1Cl)C2=NC3=NC=CN=C3C(=N2)NC4=CC=NC=C4)F
Procedure, shortened: as §1

[3] = compound: C1=CC(=CC=C1C2=NC3=C(N2)C=C(C=C3)C(=O)N)OC4=CC=C(C=C4)Cl
Procedure, shortened: as §1

[4] = compound: C1=CC2=C(C=CC(=C2)/C=C\3/C(=O)NC(=NCC4=CC=CS4)S3)N=C1
Procedure, shortened: as §1

[5] = compound: C1=CC2=NC=CN=C2C=C1/C=C/3\C(=O)NC(=O)S3
Procedure, shortened: as §1

[6] = compound: C1=CC=C(C=C1)C2=NC(=C(N2)C3=CC=NC=C3)C4=CC(=C(C=C4)Cl)O
Procedure, shortened: as §1

[7] = compound: C1=CC=C2C(=C1)C3=NNC4=CC=CC(=C43)C2=O
Procedure, shortened: as §1

[8] = compound: C1CCN(C1)C(=O)NC2=CC=CC(=C2)NC3=NC=C(C(=N3)NCCC4=CN=CN4)Br
Procedure, shortened: as §1

[9] = compound: C1CN(CCC1(CC2=CC=C(C=C2)Cl)N)C3=NC=NC4=C3C=CN4
Procedure, shortened: as §1

IRAK-1-4 Inhibitor I = compound: C1COCCN1CCN2C3=CC=CC=C3N=C2NC(=O)C4=CC(=CC=C4)[N+](=O)[O-] [IRAK-1-4 Inhibitor I]
Procedure, shortened: as §1

ibrutinib = compound: C=CC(=O)N1CCC[C@@H](n2nc(-c3ccc(Oc4ccccc4)cc3)c3c(N)ncnc32)C1 [ibrutinib]
Procedure, shortened: as §1

[10] = compound: CC(=O)c1cnc2ccc(-c3cc(Cl)c(O)c(Cl)c3)nc2c1N[C@H]1CC[C@H](CN(C)C)CC1
Procedure, shortened: as §1

ralimetinib = compound: CC(C)(C)Cn1c(N)nc2ccc(-c3[nH]c(C(C)(C)C)nc3-c3ccc(F)cc3)nc21 [ralimetinib]
Procedure, shortened: as §1

[11] = compound: CC(C)(O)CC(=O)NCCn1ccc2ncnc(Nc3ccc(Oc4cccc(C(F)(F)F)c4)c(Cl)c3)c21
Procedure, shortened: as §1

[12] = compound: CC(C)C1=C2N=C(C=C(N2N=C1)NCC3=CC=CC=C3)NCCCCCCN
Procedure, shortened: as §1

[13] = compound: CC(C)C[C@@H](C=O)NC(=O)[C@H](CC(C)C)NC(=O)[C@H](CC(C)C)NC(=O)OCc1ccccc1
Procedure, shortened: as §1

pinometostat = compound: CC(C)N(C[C@H]1O[C@@H](n2cnc3c(N)ncnc32)[C@H](O)[C@@H]1O)[C@H]1C[C@@H](CCc2nc3cc(C(C)(C)C)ccc3[nH]2)C1 [pinometostat]
Procedure, shortened: as §1

[14] = compound: CC1=C(C(CC(=O)N1)C2=CC=C(C=C2)C(F)(F)F)C(=O)NC3=C(C=C4C(=C3)C=NN4)F
Procedure, shortened: as §1

[15] = compound: CC1=C(C2=C(C=C1)C(=O)C3=CC=CC=C3N2CCCN)C
Procedure, shortened: as §1

Measured: log2 fold change

DHX15 (UniProt O43143)
inactive: erlotinib 0.026 | [1] 0.008 | [2] 0.037 | [3] -0.005 | [4] -0.037 | [5] -0.001 | [6] 0.043 | [7] 0.015 | [8] -0.013 | [9] 0.065 | IRAK-1-4 Inhibitor I 0.02 | ibrutinib -0.008 | [10] 0.012 | ralimetinib -0.038 | [11] 0 | [12] 0.051 | [13] -0.026 | pinometostat 0.001 | [14] 0 | [15] 0.086

DERL1 (UniProt Q9BUN8)
inactive: erlotinib -0.018 | [1] 0.011 | [2] 0.029 | [3] -0.01 | [4] 0.032 | [5] -0.009 | [6] 0.006 | [7] -0.031 | [8] -0.023 | [9] 0.034 | IRAK-1-4 Inhibitor I -0.045 | ibrutinib 0.059 | [10] -0.09 | ralimetinib -0.039 | [11] -0.049 | [12] -0.004 | [13] -0.101 | pinometostat 0.014 | [14] 0 | [15] 0.036

DGCR2 (UniProt P98153)
inactive: erlotinib -0.006 | [1] -0.02 | [2] -0.028 | [3] 0.019 | [4] 0.073 | [5] 0.038 | [6] 0.122 | [7] -0.037 | [8] 0.007 | [9] 0.058 | IRAK-1-4 Inhibitor I 0.035 | ibrutinib 0.007 | [10] 0.051 | ralimetinib 0.062 | [11] -0.011 | [12] -0.027 | [13] 0.083 | pinometostat 0.022 | [14] 0.08 | [15] -0.046

DENND6A (UniProt Q8IWF6)
inactive: erlotinib 0.04 | [1] 0.031 | [2] 0.091 | [3] -0.036 | [4] 0.028 | [5] -0.06 | [6] -0.004 | [7] -0.054 | [8] 0.013 | [9] 0.135 | IRAK-1-4 Inhibitor I 0 | ibrutinib 0.128 | [10] -0.105 | ralimetinib 0.018 | [11] -0.064 | [12] -0.127 | [13] 0.191 | pinometostat -0.011 | [14] -0.018 | [15] 0.122

DDAH2 (UniProt O95865)
inactive: erlotinib 0.022 | [1] 0.015 | [2] 0.015 | [3] 0 | [4] 0.07 | [5] 0.003 | [6] 0.003 | [7] -0.066 | [8] -0.001 | [9] 0.015 | IRAK-1-4 Inhibitor I 0.03 | ibrutinib -0.007 | [10] -0.027 | ralimetinib -0.062 | [11] -0.027 | [12] 0.054 | [13] -0.002 | pinometostat -0.06 | [14] 0.008 | [15] 0.141

DLGAP5 (UniProt Q15398)
inactive: erlotinib 0.06 | [1] -0.025 | [2] -0.071 | [3] 0.01 | [4] 0.048 | [5] 0.042 | [6] -0.024 | [7] -0.052 | [8] -0.022 | [9] -0.118 | IRAK-1-4 Inhibitor I -0.005 | ibrutinib -0.04 | [10] -0.044 | ralimetinib 0.074 | [11] 0 | [12] -0.202 | [13] 0.029 | pinometostat 0.088 | [14] 0.029 | [15] 0.004

DES (UniProt P17661)
inactive: erlotinib 0.085 | [1] -0.259 | [2] -0.174 | [3] -0.095 | [4] 0.069 | [5] 0.039 | [6] 0.048 | [7] -0.052 | [8] -0.035 | [9] 0.117 | IRAK-1-4 Inhibitor I -0.094 | ibrutinib 0.136 | [10] 0.012 | ralimetinib 0.196 | [11] 0.347 | [12] 0.037 | [13] 0.033 | pinometostat 0.112 | [14] -0.005 | [15] -0.039

DHRS2 (UniProt Q13268)
inactive: erlotinib -0.031 | [1] 0 | [2] 0.025 | [3] 0.045 | [4] 0.036 | [5] -0.036 | [6] 0.11 | [7] 0.046 | [8] -0.009 | [9] 0.026 | IRAK-1-4 Inhibitor I -0.009 | ibrutinib 0.12 | [10] 0.012 | ralimetinib 0.021 | [11] 0.001 | [12] 0.022 | [13] -0.114 | pinometostat -0.016 | [14] 0.045 | [15] -0.046

DDX20 (UniProt Q9UHI6)
inactive: erlotinib 0.14 | [1] -0.163 | [2] -0.494 | [3] -0.137 | [4] 0.093 | [5] 0.018 | [6] -0.032 | [7] -0.224 | [8] 0.012 | [9] -0.094 | IRAK-1-4 Inhibitor I -0.117 | ibrutinib -0.115 | [10] -0.197 | ralimetinib 0.133 | [11] -0.009 | [12] -0.262 | [13] 0.108 | pinometostat 0.547 | [14] -0.027 | [15] -0.37

DHDDS isoform 2 (UniProt Q86SQ9)
inactive: erlotinib 0.027 | [1] -0.011 | [2] 0 | [3] -0.03 | [4] -0.003 | [5] -0.008 | [6] -0.005 | [7] -0.022 | [8] -0.03 | [9] -0.025 | IRAK-1-4 Inhibitor I -0.116 | ibrutinib 0.001 | [10] -0.018 | ralimetinib -0.079 | [11] 0.049 | [12] 0.063 | [13] -0.064 | pinometostat -0.026 | [14] -0.021 | [15] -0.053

DENND4B (UniProt O75064)
inactive: erlotinib -0.029 | [1] 0.014 | [2] -0.033 | [3] -0.004 | [4] 0.094 | [5] -0.198 | [6] -0.023 | [7] 0.02 | [8] -0.047 | [9] 0.031 | IRAK-1-4 Inhibitor I 0.009 | ibrutinib 0.01 | [10] -0.088 | ralimetinib 0.03 | [11] -0.031 | [12] -0.038 | [13] 0.044 | pinometostat 0.029 | [14] 0.103 | [15] 0.101

DHRS7 (UniProt Q9Y394)
inactive: erlotinib 0.005 | [1] 0.044 | [2] 0.072 | [3] 0.058 | [4] -0.015 | [5] 0.023 | [6] 0.012 | [7] -0.024 | [8] -0.001 | [9] 0.038 | IRAK-1-4 Inhibitor I 0.005 | ibrutinib 0.024 | [10] -0.013 | ralimetinib -0.027 | [11] 0.014 | [12] 0.043 | [13] -0.026 | pinometostat -0.025 | [14] -0.031 | [15] 0.013

DIABLO (UniProt Q9NR28)
inactive: erlotinib 0.045 | [1] -0.039 | [2] 0.1 | [3] 0.015 | [4] -0.027 | [5] 0.011 | [6] -0.089 | [7] 0.038 | [8] 0.026 | [9] 0.063 | IRAK-1-4 Inhibitor I 0.008 | ibrutinib 0.014 | [10] 0.035 | ralimetinib -0.117 | [11] -0.021 | [12] 0.064 | [13] 0.024 | pinometostat -0.059 | [14] 0.016 | [15] -0.042

DDI2 isoform 3 (UniProt Q5TDH0)
inactive: erlotinib 0.025 | [1] 0.052 | [2] -0.082 | [3] 0.022 | [4] 0.047 | [5] 0.016 | [6] -0.018 | [7] -0.001 | [8] 0.011 | [9] -0.014 | IRAK-1-4 Inhibitor I 0.065 | ibrutinib 0.013 | [10] 0.049 | ralimetinib -0.024 | [11] 0.005 | [12] -0.04 | [13] 0.001 | pinometostat -0.036 | [14] -0.017 | [15] -0.067

DDX59 (UniProt Q5T1V6)
inactive: erlotinib -0.055 | [1] 0.053 | [2] 0.097 | [3] -0.034 | [4] 0.03 | [5] -0.007 | [6] -0.018 | [7] -0.023 | [8] -0.019 | [9] 0 | IRAK-1-4 Inhibitor I -0.068 | ibrutinib -0.12 | [10] -0.04 | ralimetinib -0.054 | [11] -0.131 | [12] -0.015 | [13] -0.001 | pinometostat -0.064 | [14] -0.043 | [15] 0.04

2 entries picked at random from those above:
DENND4B (UniProt O75064)
inactive: erlotinib -0.029 | [1] 0.014 | [2] -0.033 | [3] -0.004 | [4] 0.094 | [5] -0.198 | [6] -0.023 | [7] 0.02 | [8] -0.047 | [9] 0.031 | IRAK-1-4 Inhibitor I 0.009 | ibrutinib 0.01 | [10] -0.088 | ralimetinib 0.03 | [11] -0.031 | [12] -0.038 | [13] 0.044 | pinometostat 0.029 | [14] 0.103 | [15] 0.101

DENND6A (UniProt Q8IWF6)
inactive: erlotinib 0.04 | [1] 0.031 | [2] 0.091 | [3] -0.036 | [4] 0.028 | [5] -0.06 | [6] -0.004 | [7] -0.054 | [8] 0.013 | [9] 0.135 | IRAK-1-4 Inhibitor I 0 | ibrutinib 0.128 | [10] -0.105 | ralimetinib 0.018 | [11] -0.064 | [12] -0.127 | [13] 0.191 | pinometostat -0.011 | [14] -0.018 | [15] 0.122
